# Reference: paper PMC10387110
# By UniProt entry, the sequences of proteins in these tests, tags left out.
# UniProt E9PY46: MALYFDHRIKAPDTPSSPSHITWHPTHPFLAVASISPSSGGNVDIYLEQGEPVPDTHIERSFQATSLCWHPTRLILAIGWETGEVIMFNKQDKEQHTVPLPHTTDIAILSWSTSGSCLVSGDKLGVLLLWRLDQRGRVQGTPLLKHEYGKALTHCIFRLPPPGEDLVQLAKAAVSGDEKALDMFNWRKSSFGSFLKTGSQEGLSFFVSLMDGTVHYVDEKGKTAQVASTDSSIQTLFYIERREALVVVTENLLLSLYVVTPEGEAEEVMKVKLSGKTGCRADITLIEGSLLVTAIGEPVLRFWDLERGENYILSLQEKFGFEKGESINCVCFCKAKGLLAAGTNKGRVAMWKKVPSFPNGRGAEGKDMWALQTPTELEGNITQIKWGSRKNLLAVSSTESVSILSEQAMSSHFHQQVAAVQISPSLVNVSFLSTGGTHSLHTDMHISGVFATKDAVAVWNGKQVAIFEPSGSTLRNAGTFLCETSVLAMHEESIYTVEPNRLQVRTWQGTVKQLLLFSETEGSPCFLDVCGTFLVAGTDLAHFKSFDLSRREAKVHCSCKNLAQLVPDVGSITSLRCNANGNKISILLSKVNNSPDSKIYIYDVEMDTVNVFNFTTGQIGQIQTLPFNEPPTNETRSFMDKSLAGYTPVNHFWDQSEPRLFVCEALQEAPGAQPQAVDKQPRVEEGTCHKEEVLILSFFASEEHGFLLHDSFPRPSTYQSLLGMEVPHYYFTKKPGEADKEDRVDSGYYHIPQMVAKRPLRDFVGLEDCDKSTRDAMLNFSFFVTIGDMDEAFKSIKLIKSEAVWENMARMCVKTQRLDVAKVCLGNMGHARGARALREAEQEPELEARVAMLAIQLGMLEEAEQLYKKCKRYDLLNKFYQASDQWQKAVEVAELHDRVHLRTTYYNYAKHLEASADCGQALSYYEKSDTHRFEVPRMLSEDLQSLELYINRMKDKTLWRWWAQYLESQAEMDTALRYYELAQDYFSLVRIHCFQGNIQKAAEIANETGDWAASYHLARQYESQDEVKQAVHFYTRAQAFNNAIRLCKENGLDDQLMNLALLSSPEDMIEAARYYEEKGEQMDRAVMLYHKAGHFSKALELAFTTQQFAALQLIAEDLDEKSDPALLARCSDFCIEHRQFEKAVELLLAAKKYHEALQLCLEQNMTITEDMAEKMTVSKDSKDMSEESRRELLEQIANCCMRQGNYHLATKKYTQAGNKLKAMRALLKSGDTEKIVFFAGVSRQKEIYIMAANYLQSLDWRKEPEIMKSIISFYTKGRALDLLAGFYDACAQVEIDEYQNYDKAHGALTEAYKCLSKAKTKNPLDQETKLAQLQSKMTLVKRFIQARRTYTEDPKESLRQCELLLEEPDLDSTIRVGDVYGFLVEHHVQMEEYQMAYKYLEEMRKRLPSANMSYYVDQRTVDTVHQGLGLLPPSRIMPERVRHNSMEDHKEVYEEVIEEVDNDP
# UniProt Q61025: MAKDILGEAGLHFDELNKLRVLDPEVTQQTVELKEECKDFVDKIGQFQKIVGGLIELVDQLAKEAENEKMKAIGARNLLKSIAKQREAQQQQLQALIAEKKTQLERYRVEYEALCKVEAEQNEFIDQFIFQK
# These are yes or no findings as the source states them, for the method shown. In cells and extracts the contact can be indirect. Some entries that bind do so weakly or less than the wild type. Sequences can lack the tags named with a protein.
# T1: Myc-tagged WDR11 (UniProt Q9BZH6)
# T1 sequence: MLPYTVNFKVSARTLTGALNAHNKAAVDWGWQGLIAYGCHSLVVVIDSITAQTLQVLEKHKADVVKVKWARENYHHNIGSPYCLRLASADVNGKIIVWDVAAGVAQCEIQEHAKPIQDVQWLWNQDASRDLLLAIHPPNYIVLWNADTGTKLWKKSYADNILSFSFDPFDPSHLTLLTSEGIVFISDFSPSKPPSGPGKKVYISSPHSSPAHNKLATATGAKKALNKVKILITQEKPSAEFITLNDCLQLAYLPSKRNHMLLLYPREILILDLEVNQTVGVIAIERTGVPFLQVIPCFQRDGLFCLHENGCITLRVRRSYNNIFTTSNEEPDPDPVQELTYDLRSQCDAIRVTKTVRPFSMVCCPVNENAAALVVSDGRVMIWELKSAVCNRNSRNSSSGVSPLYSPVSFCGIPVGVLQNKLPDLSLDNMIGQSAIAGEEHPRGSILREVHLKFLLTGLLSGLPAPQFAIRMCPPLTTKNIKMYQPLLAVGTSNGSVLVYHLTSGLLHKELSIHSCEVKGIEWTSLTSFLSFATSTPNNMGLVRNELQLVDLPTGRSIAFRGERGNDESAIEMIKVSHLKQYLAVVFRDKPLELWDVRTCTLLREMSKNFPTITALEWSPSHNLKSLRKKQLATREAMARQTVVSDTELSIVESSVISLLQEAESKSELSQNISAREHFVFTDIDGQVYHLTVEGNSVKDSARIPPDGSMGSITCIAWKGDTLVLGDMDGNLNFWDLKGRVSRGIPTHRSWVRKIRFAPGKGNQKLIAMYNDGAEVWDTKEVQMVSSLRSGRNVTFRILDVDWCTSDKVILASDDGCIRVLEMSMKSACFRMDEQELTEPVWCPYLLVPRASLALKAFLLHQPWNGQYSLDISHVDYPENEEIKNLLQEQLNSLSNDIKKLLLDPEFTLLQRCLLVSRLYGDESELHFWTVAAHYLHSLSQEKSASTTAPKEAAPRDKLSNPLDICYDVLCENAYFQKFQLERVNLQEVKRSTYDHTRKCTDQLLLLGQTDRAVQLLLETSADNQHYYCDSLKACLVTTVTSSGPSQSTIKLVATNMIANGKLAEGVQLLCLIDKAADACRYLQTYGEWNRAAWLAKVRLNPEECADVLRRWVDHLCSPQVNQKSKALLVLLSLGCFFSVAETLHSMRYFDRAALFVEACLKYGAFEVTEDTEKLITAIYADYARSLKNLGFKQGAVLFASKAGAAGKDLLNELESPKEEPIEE
# Biological target: T1, Myc-tagged WDR11
# Assay: co-IP; NIH3T3 cells transfected with Myc-tagged WDR11 or empty vector; pre-cleared lysate (1-2 mg protein; 50 mM HEPES, 150 mM NaCl, 10% glycerol, 1% Nonidet P-40, 1 mM EDTA) immunoprecipitated with anti-Myc antibody, immune complexes captured on protein A/G-agarose beads, Western blot for endogenous IFT proteins
row,Molecule,binding
1,IFT140 (from UniProt E9PY46 1-1464),no binding
2,IFT20 (from UniProt Q61025 1-132),binds
3,"IFT57 (protein, UniProt Q8BXG3 1-429) MAAAAAVIPPSGLDDGVSRARGEGAGEAVVERGPGAAYHMFVVMEDLVEKLKLLRYEEELLRKSNLKPPSRHYFALPTNPGEQFYMFCTLAAWLINKTGRAFEQPQEYDDPNATISNILSELRSFGRTADFPPSKLKSGYGEQVCYVLDCLAEEALKYIGFTWKRPSYPVEELEEETVPEDDAELTLSKVDEEFVEEETDNEENFIDLNVLKAQTYRLDTNESAKQEDILESTTDAAEWSLEVERVLPQLKVTIRTDNKDWRIHVDQMHQHKSGIESALKETKGFLDKLHNEISRTLEKIGSREKYINNQLEHLVQEYRGAQAQLSEARERYQQGNGGVTERTRLLSEVTEELEKVKQEMEEKGSSMTDGTPLVKIKQSLTKLKQETVQMDIRIGVVEHTLLQSKLKEKCNMTRDMHAAVTPESAIGFY",binds
4,"IFT88 (protein, UniProt Q61371 1-824) MENVHLAPETDEDDLYSGFNDYNPAYDTEELENDTGFQQAVRTSHGRRPPVTAKIPSTAVSRPIATGYGSKTSLTSSMGRPMTGTIQDGVARPMTAVRAAGFSKAALRGSAFDPLGQSRGPAPPLEAKNEDSPEEKIRQLEKKVNELVEESCIANSCGDLKLALEKAKDAGRKERVLVRQREQVTSPENINLDLTYSVLFNLASQYSANEMYAEALNTYQVIVKNKMFSNAGRLKVNMGNIYLKQRNYSKAIKFYRMALDQIPSVHKEMRIKIMQNIGITFIKTGQYSDAINSFEHIMSMAPSLKAGFNLILSCFAIGDREKMKKAFQKLIAVPLEIDEDDKYISPSDDPHTNLLIEAIKNDHLRQMERERKAMAEKYIMTAAKLIAPVIEASFAVGYNWCVEVVKASQYVELANDLEINKAITYLRQKDFNQAVDTLKMFEKKDSRVKSAAATNLSFLYYLENEFAQASSYADLAVNSDRYNPSALTNKGNTVFANGDYEKAAEFYKEALRNDSSCTEALYNIGLTYKKLNRLDEALDSFLKLHAILRNSAQVLCQIANIYELMEDPNQAIEWLMQLISVVPTDSQALSKLGELYDSEGDKSQAFQYYYESYRYFPSNIEVIEWLGAYYIDTQFCEKAIQYFERASLIQPTQVKWQLMVASCFRRSGNYQKALDTYKEIHRKFPENVECLRFLVRLCTDIGLKEVQEYATKLKRLEKMKEMREQRIKSGRDSSGGSRSKREGSAGSDSGQNNSASSKSERLSAKLRALPGTDEPYESSGNKEIDASYVDPLGPQIERPKTAAKKRIDEDDFADEELGDDLLPE",binds
